Laboratory results as given in PubChem BioAssay AID250 (DTP/NCI, 2004).
The list is a part of this screen's results and no random one: it covers a few groups of compounds. Other doses and runs of a compound may be missing. T/C gives the treated animals as a percentage of the vehicle group. Some doses have a count of surviving animals in place of a T/C: the source files T/C as zero there, which appears to mark a toxic dose or a test without result, not a measured value. Some survivor counts are full or nearly so, which does not show that the dose was tolerated: the source hardly ever lists a survival T/C far under the control, and the zero likely stands for such cases as well. For part of these data: Counts of survivors are from the toxicity check (mostly the fifth day) where no day follows; animals may have died later. Schedule codes are those of the source, taken here to give the interval after Q, in days (D) or hours (H), and the number of doses after X. Where survival is the endpoint, this PubChem deposit counts one and a half times the control or more as active, and values a quarter to a half above the control carry no call in these data; other NCI protocols may use other cut-offs. Some doses were run more than once; the values are given in rising order. Some schedule codes hold Z or #, which are not explained here. Some T/C values are followed by the survivors on the day toxicity was checked, most often the fifth; where neither a count nor a note follows, no animal had died by that day.

Assays:
[1] = system: BDF1 mice, L1210 leukemia sc; assay: NCI In Vivo Anticancer Drug Screen. Data for tumor model L1210 Leukemia (subcutaneous) in B6D2F1 (BDF1) mice; settings: T/C endpoint: median survival time, higher T/C = longer survival
Summary of the method: (§1)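 Mice carrying transplanted tumors received test compounds, and survival or tumor size was measured. Values are the treated-group measurement (T) divided by that of the vehicle-treated control group (C).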

[2] = system: BDF1 mice, L1210 leukemia sc, survival T/C; assay: as above; settings: T/C endpoint: median survival time, higher T/C = longer survival
Summary of the method: as §1

[3] = dose: 180.0 mg/kg/injection, schedule: Q07DX003 (sc), vehicle: Klucel (hydroxypropylcellulose) (HPC), evaluated on day 7

With `NC(=O)c1[nH]cnc1/N=N\N(CCCl)CCCl` the T/C ([1]; dose: 37.5 mg/kg/injection, schedule: Q01DX009 (sc), vehicle: saline with Tween-80) was 144 % of control [9 of 10 alive], the T/C ([1]; dose: 75.0 mg/kg/injection, schedule: Q## X Z (sc), vehicle: carboxymethylcellulose (CMC)) was 127 % of control and the T/C ([1]; dose: 100.0 mg/kg/injection, schedule: Q01DX001 (ip), vehicle: Klucel (hydroxypropylcellulose) (HPC)) was 125 % of control. The T/C ([1]; dose: 100.0 mg/kg/injection, schedule: Q01DX009 (ip), vehicle: Klucel (hydroxypropylcellulose) (HPC)) was 140 % of control [7 of 8 alive], the T/C ([1]; dose: 108.0 mg/kg/injection, schedule: Q07DX003 (sc), vehicle: Klucel (hydroxypropylcellulose) (HPC), evaluated on day 7) was 135 % of control and the T/C ([1]; dose: 108.0 mg/kg/injection, schedule: Q07DX003 (sc), vehicle: Klucel (hydroxypropylcellulose) (HPC), evaluated on day 51) was 130 % of control. The T/C ([1]; dose: 108.0 mg/kg/injection, schedule: Q08DX003 (sc), vehicle: steroid suspending solution, evaluated on day 6) was 136 % of control, the T/C ([1]; dose: 108.0 mg/kg/injection, schedule: Q08DX003 (sc), vehicle: steroid suspending solution, evaluated on day 47) was 138 % of control and the T/C ([1]; dose: 149.0 mg/kg/injection, schedule: Q01DX001 (sc), vehicle: carboxymethylcellulose (CMC)) was 133 % of control. For the same compound, the T/C [1, 3] was 145 % of control, the T/C ([1]; dose: 180.0 mg/kg/injection, schedule: Q07DX003 (sc), vehicle: Klucel (hydroxypropylcellulose) (HPC), evaluated on day 51) was 140 % of control and the T/C ([1]; dose: 200.0 mg/kg/injection, schedule: Q01DX001 (ip), vehicle: Klucel (hydroxypropylcellulose) (HPC)) was 137 % of control. For the same compound, the T/C ([1]; dose: 200.0 mg/kg/injection, schedule: Q01DX009 (ip), vehicle: Klucel (hydroxypropylcellulose) (HPC)) was 135 % of control, the T/C ([2]; dose: 12.5 mg/kg/injection, schedule: Q01DX009 (ip), vehicle: Klucel (hydroxypropylcellulose) (HPC)) was 165 % of control and the T/C ([2]; dose: 18.75 mg/kg/injection, schedule: Q01DX009 (sc), vehicle: saline with Tween-80) was 152 % of control [9 of 10 alive]. The T/C ([2]; dose: 25.0 mg/kg/injection, schedule: Q01DX009 (ip), vehicle: Klucel (hydroxypropylcellulose) (HPC)) was 190 % of control, the T/C ([2]; dose: 37.5 mg/kg/injection, schedule: Q01DX Z (sc), vehicle: carboxymethylcellulose (CMC)) was 116 % of control and the T/C ([2]; dose: 37.5 mg/kg/injection, schedule: Q## X Z (sc), vehicle: carboxymethylcellulose (CMC)) was 122 % of control. For the same compound, the T/C ([2]; dose: 50.0 mg/kg/injection, schedule: Q01DX009 (ip), vehicle: Klucel (hydroxypropylcellulose) (HPC)) was 180 % of control, the T/C ([2]; dose: 74.0 mg/kg/injection, schedule: Q## X Z (sc), vehicle: carboxymethylcellulose (CMC)) was 366 % of control and the T/C ([2]; dose: 75.0 mg/kg/injection, schedule: Q01DX009 (sc), vehicle: saline with Tween-80) was 204 % of control. The T/C ([2]; dose: 75.0 mg/kg/injection, schedule: Q01DX Z (sc), vehicle: carboxymethylcellulose (CMC)) was 300 % of control, the T/C ([2]; dose: 149.0 mg/kg/injection, schedule: Q## X Z (sc), vehicle: carboxymethylcellulose (CMC)) was 500 % of control and the T/C ([2]; dose: 150.0 mg/kg/injection, schedule: Q01DX009 (sc), vehicle: saline with Tween-80) was 163 % of control. For the same compound, the T/C ([2]; dose: 150.0 mg/kg/injection, schedule: Q01DX Z (sc), vehicle: carboxymethylcellulose (CMC)) was 366 % of control, the T/C ([2]; dose: 150.0 mg/kg/injection, schedule: Q07DX Z (sc), vehicle: carboxymethylcellulose (CMC)) was 150 % of control and the T/C ([2]; dose: 150.0 mg/kg/injection, schedule: Q## X Z (sc), vehicle: carboxymethylcellulose (CMC)) was 227 % of control. For the same compound, the T/C [2, 3] was 209 and 222 % of control, the T/C ([2]; dose: 180.0 mg/kg/injection, schedule: Q07DX003 (sc), vehicle: Klucel (hydroxypropylcellulose) (HPC), evaluated on day 63) was 209 % of control and the T/C ([2]; dose: 180.0 mg/kg/injection, schedule: Q07DX003 (sc), vehicle: Klucel (hydroxypropylcellulose) (HPC), evaluated on day 64) was 211 % of control. For the same compound, the T/C ([2]; dose: 180.0 mg/kg/injection, schedule: Q08DX003 (sc), vehicle: steroid suspending solution, evaluated on day 6) was 157 % of control, the T/C ([2]; dose: 180.0 mg/kg/injection, schedule: Q08DX003 (sc), vehicle: steroid suspending solution, evaluated on day 47) was 161 % of control and the T/C ([2]; dose: 299.0 mg/kg/injection, schedule: Q01DX001 (sc), vehicle: carboxymethylcellulose (CMC)) was 172 % of control. The T/C ([2]; dose: 299.0 mg/kg/injection, schedule: Q## X Z (sc), vehicle: carboxymethylcellulose (CMC)) was 344 % of control, the T/C ([2]; dose: 300.0 mg/kg/injection, schedule: Q01DX Z (sc), vehicle: carboxymethylcellulose (CMC)) was 294 % of control and the T/C ([2]; dose: 300.0 mg/kg/injection, schedule: Q07DX003 (sc), vehicle: Klucel (hydroxypropylcellulose) (HPC), evaluated on day 7) was 193, 200, 231 % of control. The T/C ([2]; dose: 300.0 mg/kg/injection, schedule: Q07DX003 (sc), vehicle: Klucel (hydroxypropylcellulose) (HPC), evaluated on day 51) was 165 % of control, the T/C ([2]; dose: 300.0 mg/kg/injection, schedule: Q07DX003 (sc), vehicle: Klucel (hydroxypropylcellulose) (HPC), evaluated on day 63) was 231 % of control and the T/C ([2]; dose: 300.0 mg/kg/injection, schedule: Q07DX003 (sc), vehicle: Klucel (hydroxypropylcellulose) (HPC), evaluated on day 64) was 200 % of control. The T/C ([2]; dose: 300.0 mg/kg/injection, schedule: Q07DX Z (sc), vehicle: carboxymethylcellulose (CMC)) was 388 % of control, the T/C ([2]; dose: 300.0 mg/kg/injection, schedule: Q08DX003 (sc), vehicle: steroid suspending solution, evaluated on day 6) was 202 % of control and the T/C ([2]; dose: 300.0 mg/kg/injection, schedule: Q08DX003 (sc), vehicle: steroid suspending solution, evaluated on day 47) was 194 % of control. The T/C ([2]; dose: 300.0 mg/kg/injection, schedule: Q## X Z (sc), vehicle: carboxymethylcellulose (CMC)) was 377 % of control, the T/C ([2]; dose: 400.0 mg/kg/injection, schedule: Q01DX001 (ip), vehicle: Klucel (hydroxypropylcellulose) (HPC)) was 206 % of control and the T/C ([2]; dose: 400.0 mg/kg/injection, schedule: Q01DX009 (ip), vehicle: Klucel (hydroxypropylcellulose) (HPC)) was 100 % of control. The T/C ([2]; dose: 500.0 mg/kg/injection, schedule: Q07DX003 (sc), vehicle: Klucel (hydroxypropylcellulose) (HPC), evaluated on day 7) was 204, 277, 293 % of control, the T/C ([2]; dose: 500.0 mg/kg/injection, schedule: Q07DX003 (sc), vehicle: Klucel (hydroxypropylcellulose) (HPC), evaluated on day 51) was 195 % of control and the T/C ([2]; dose: 500.0 mg/kg/injection, schedule: Q07DX003 (sc), vehicle: Klucel (hydroxypropylcellulose) (HPC), evaluated on day 63) was 293 % of control. The T/C ([2]; dose: 500.0 mg/kg/injection, schedule: Q07DX003 (sc), vehicle: Klucel (hydroxypropylcellulose) (HPC), evaluated on day 64) was 255 % of control, the T/C ([2]; dose: 500.0 mg/kg/injection, schedule: Q08DX003 (sc), vehicle: steroid suspending solution, evaluated on day 6) was 351 % of control and the T/C ([2]; dose: 500.0 mg/kg/injection, schedule: Q08DX003 (sc), vehicle: steroid suspending solution, evaluated on day 47) was 355 % of control. For the same compound, the T/C ([2]; dose: 599.0 mg/kg/injection, schedule: Q01DX001 (sc), vehicle: carboxymethylcellulose (CMC)) was 188 % of control, the T/C ([2]; dose: 599.0 mg/kg/injection, schedule: Q## X Z (sc), vehicle: carboxymethylcellulose (CMC)) was 216 % of control and the T/C ([2]; dose: 600.0 mg/kg/injection, schedule: Q07DX Z (sc), vehicle: carboxymethylcellulose (CMC)) was 411 % of control. The T/C ([2]; dose: 600.0 mg/kg/injection, schedule: Q## X Z (sc), vehicle: carboxymethylcellulose (CMC)) was 100 % of control, the T/C ([2]; dose: 800.0 mg/kg/injection, schedule: Q01DX001 (ip), vehicle: Klucel (hydroxypropylcellulose) (HPC)) was 112 % of control and the survivor count ([2]; dose: 800.0 mg/kg/injection, schedule: Q01DX009 (ip), vehicle: Klucel (hydroxypropylcellulose) (HPC)) was 6 of 8. For the same compound, the T/C ([2]; dose: 833.0 mg/kg/injection, schedule: Q07DX003 (sc), vehicle: Klucel (hydroxypropylcellulose) (HPC), evaluated on day 7) was 288 and 304 % of control, the T/C ([2]; dose: 833.0 mg/kg/injection, schedule: Q07DX003 (sc), vehicle: Klucel (hydroxypropylcellulose) (HPC), evaluated on day 63) was 304 % of control and the T/C ([2]; dose: 833.0 mg/kg/injection, schedule: Q07DX003 (sc), vehicle: Klucel (hydroxypropylcellulose) (HPC), evaluated on day 64) was 283 % of control. For the same compound, the T/C ([2]; dose: 833.0 mg/kg/injection, schedule: Q08DX003 (sc), vehicle: steroid suspending solution, evaluated on day 6) was 319 % of control, the T/C ([2]; dose: 833.0 mg/kg/injection, schedule: Q08DX003 (sc), vehicle: steroid suspending solution, evaluated on day 47) was 322 % of control and the T/C ([2]; dose: 1199.0 mg/kg/injection, schedule: Q01DX001 (sc), vehicle: carboxymethylcellulose (CMC)) was 250 % of control. The T/C ([2]; dose: 1200.0 mg/kg/injection, schedule: Q07DX Z (sc), vehicle: carboxymethylcellulose (CMC)) was 283 % of control, the T/C ([2]; dose: 1388.0 mg/kg/injection, schedule: Q07DX003 (sc), vehicle: Klucel (hydroxypropylcellulose) (HPC), evaluated on day 7) was 331 % of control and the T/C ([2]; dose: 1388.0 mg/kg/injection, schedule: Q07DX003 (sc), vehicle: Klucel (hydroxypropylcellulose) (HPC), evaluated on day 64) was 322 % of control.
